The results in this text go back to PubChem BioAssay AID1487 (National Center for Advancing Translational Sciences (NCATS), 2009).

A short description of this assay: qHTS Assay for Modulators of Lamin A Splicing. To be noted: HeLa LMNA splicing GFP/RFP minigene ratio, 48 h. In short, it runs like this:
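S3 HeLa stable clones carrying a lamin A-EGFP splicing minigene plus DsRed2 were seeded at 600 cells/well in Opti-MEM with 2% FBS, pin-dosed and incubated 48 h at 37°C. Acumen cytometry (488 nm) gave the GFP/RFP total-intensity ratio.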
A general note: qHTS replaces the single test concentration by a dilution series.

The mark [1] stands for this setting: measured here: RFP viability control channel.
Where [2] appears, read: measured here: GFP splicing reporter channel.

SMILES strings stand for the structures. This is one part of the list. Further columns of the screen follow, without active or inactive calls. Compounds called inactive in the main read-out are mostly missing here. Potencies come from curve fits of mixed quality, noted in brackets.

For the molecule `Clc1ccc(CO/N=C2\CCCc3nonc32)c(Cl)c1`, the half-maximal activity concentration (AC50) under setting [1] is 35.5 µM [rising, single point].

`CCCOc1ccc(NC(=O)CC2C(=O)N(C)C(=S)N2Cc2cccs2)cc1` (configuration not stated): the AC50 under setting [1] was 35.5 µM [rising, single point]. With `Cc1cccc(-n2ccnc2SCC(=O)Nc2nccs2)c1`, the half-maximal activity concentration (AC50) is 12.6 µM [rising, single point] under setting [2] and 12.6 µM [rising, partial curve, poor fit] under setting [1]. Turning to `COc1ccc(CNC(=O)CN(c2ccccc2OC)S(=O)(=O)c2ccc(C)cc2)cc1`, the AC50 under setting [2] is 22.4 µM [falling, single point]. In the case of `O=c1ccnc(SCCC(F)=C(F)F)[nH]1`, the AC50 under setting [2] is 14.1 µM [rising, partial curve, poor fit].

Take `O=S(=O)(NCc1ccccc1)c1ccc(-c2cnc(C3CC3)o2)cc1`: the AC50 under setting [1] is 8.91 µM [rising, single point]. Take `CC(=O)Nc1cccc(NC(=O)c2c(-c3c(Cl)cccc3Cl)noc2C)c1`: the AC50 under setting [1] was 31.6 µM [rising, single point].

Regarding `Cc1nc2cc(NS(=O)(=O)c3c(C)c(C)cc(C)c3C)ccc2s1`, the AC50 under setting [1] is 2.82 µM [rising, full curve].

For the molecule `CCOc1ccc2[nH]c(=O)c(CN(Cc3ccc(F)cc3)C(=O)c3ccco3)cc2c1`, the AC50 reads like this: under setting [2], 35.5 µM [rising, single point]; under setting [1], 35.5 µM [rising, single point].

On to `CN(C)S(=O)(=O)c1ccc(NC(=O)CNc2cc(S(=O)(=O)N3CCCC3)ccc2OCC(F)(F)F)cc1`, for which the concentration at half-maximal activity (AC50) was 11.2 µM [rising, single point] under setting [2] and 17.8 µM [rising, single point] under setting [1].

For the molecule `O=C(CSc1nnc(-c2ccc(NS(=O)(=O)c3ccccc3)cc2)o1)NCC1CCCO1` (configuration not stated), the half-maximal activity concentration (AC50) under setting [1] is 14.1 µM [rising, single point]. For `CN1CC(=O)N(CC(=O)N2N=C(c3ccc(Cl)cc3)CC2c2ccco2)C1=O` (configuration not stated), the AC50 under setting [2] is 0.00316 µM [rising, full curve, poor fit].

Regarding `CCc1ccc(/C=C/C(=O)c2ccc(S(=O)(=O)N(C)C)cc2)cc1`, the AC50 runs as follows: under setting [2], 35.5 µM [falling, single point]; under setting [1], 35.5 µM [falling, single point]. For `Cc1cccc(C)c1OCC(=O)N/N=C/c1ccc2c(c1)OCO2`, the AC50 is 7.08 µM [falling, full curve] under setting [2] and 7.08 µM [falling, full curve, poor fit] under setting [1]. Take `O=c1c2ccccc2oc2nc3n(c(=O)c12)CCCS3`: under setting [1], the AC50 is 10 µM [rising, single point]. On to `Cc1ccc(NC(=O)CSc2nc3nccnc3c(=O)n2CCc2c[nH]c3ccccc23)cc1`, for which the concentration at half-maximal activity (AC50) runs as follows: under setting [2], 2.24 µM [falling, partial curve, poor fit]; under setting [1], 1.78 µM [falling, partial curve]. With `Cc1ccc(S(=O)(=O)N2CCN(C(C)C(=O)Nc3ccccc3-c3ccccc3)CC2)cc1` (configuration not stated), the AC50 under setting [1] is 28.2 µM [rising, partial curve].

`O=[N+]([O-])c1cc(C(F)(F)F)ccc1N1CCN(S(=O)(=O)c2ccc3c(c2)CCCC3)CC1`: the AC50 is 2.82 µM [rising, single point] under setting [2] and 3.16 µM [rising, partial curve] under setting [1]. With `O=C(NC(=S)Nc1cccc(CO)c1)c1ccc(-c2ccccc2)cc1`, the half-maximal activity concentration (AC50) by setting is: under setting [2], 14.1 µM [rising, single point]; under setting [1], 35.5 µM [rising, single point]. In the case of `COc1cc(CNc2ccc3[nH]c(=O)[nH]c3c2)ccc1OCc1ccccc1F`, under setting [2], the half-maximal activity concentration (AC50) is 5.01 µM [falling, partial curve, poor fit]. In the case of `COC(=O)c1sccc1NC(=O)CSc1nnnn1-c1ccccc1C`, under setting [1], the concentration at half-maximal activity (AC50) is 25.1 µM [rising, single point]. As to `O=C(N/N=C/c1ccccc1O)C1SCCCS1`, under setting [2], the AC50 is 15.8 µM [falling, single point]. For `COc1ccccc1Oc1c(C)oc2c(CN3CCN(CCO)CC3)c(O)ccc2c1=O`, the half-maximal activity concentration (AC50) under setting [1] is 22.4 µM [rising, single point]. As to `CC(=O)Nc1ccc(Oc2cc(N)cc([N+](=O)[O-])c2)cc1`, the half-maximal activity concentration (AC50) under setting [1] is 35.5 µM [falling, single point]. With `CC1CC1C(=O)Nc1nc(-c2ccccc2)cs1` (configuration not stated), the half-maximal activity concentration (AC50) reads like this: under setting [2], 15.8 µM [rising, single point]; under setting [1], 14.1 µM [rising, single point].

Turning to `CC(=O)NC(C)c1nc2ccccc2n1CC(=O)NC(C)CCc1ccccc1` (configuration not stated), the concentration at half-maximal activity (AC50) under setting [1] was 35.5 µM [rising, partial curve, poor fit]. For the molecule `O=C(CCNS(=O)(=O)c1ccc2c(c1)CCN2C(=O)C1CC1)N1CCN(c2ccccc2F)CC1`, the half-maximal activity concentration (AC50) runs as follows: under setting [2], 0.0224 µM [falling, full curve, poor fit]; under setting [1], 0.02 µM [falling, full curve, poor fit].

As to `O=C1C=C(NC2=CC3OC(c4ccccc4)OCC3OC2=O)CCC1` (configuration not stated), the AC50 under setting [1] was 11.2 µM [rising, partial curve]. With `O=c1[nH]c(/C=C/c2ccc(OC(F)F)cc2)nc2c1cnn2-c1ccccc1`, the AC50 under setting [1] is 4.47 µM [falling, partial curve, poor fit]. As to `Cc1onc(-c2c(F)cccc2Cl)c1C(=O)Nc1sc2c(c1C#N)CCC(C(C)(C)C)C2` (configuration not stated), the concentration at half-maximal activity (AC50) under setting [1] was 14.1 µM [rising, single point]. In the case of `COc1ccccc1N=CC1=C(O)CC(c2ccccc2)CC1=O` (configuration not stated), the half-maximal activity concentration (AC50) under setting [1] is 11.2 µM [rising, single point]. On to `C=CCn1c(-c2ccc3[nH]c(C)c(C)c3c2)n[nH]c1=S`, for which, under setting [1], the AC50 was 31.6 µM [rising, single point]. In the case of `Cc1ccc(S(=O)(=O)Nc2ccc3c(c2)CCC3)cc1`, the AC50 by setting is: under setting [2], 7.08 µM [rising, partial curve, poor fit]; under setting [1], 12.6 µM [rising, partial curve]. For the molecule `COc1ccc(C(=O)CSc2nnc(Cc3ccccc3)o2)cc1`, the half-maximal activity concentration (AC50) under setting [2] was 35.5 µM [rising, single point]. In the case of `COc1ccc(NC(=O)/C(C#N)=C/c2cc(C)n(-c3ccc(N4CCOCC4)c([N+](=O)[O-])c3)c2C)cc1`, under setting [1], the AC50 was 12.6 µM [rising, partial curve]. On to `CC1=CC(C)C(C(=O)O)C(C(=O)O)C1` (configuration not stated), for which, under setting [1], the half-maximal activity concentration (AC50) is 0.631 µM [rising, partial curve].

As usually defined, the AC50 is the concentration at which the activity in the assay is half-maximal.
